The experiment concerns the target T1, NHK-1-GFP (nucleosomal histone kinase-1 fused to GFP) (Drosophila) (UniProt Q7KRY6).
T1 sequence: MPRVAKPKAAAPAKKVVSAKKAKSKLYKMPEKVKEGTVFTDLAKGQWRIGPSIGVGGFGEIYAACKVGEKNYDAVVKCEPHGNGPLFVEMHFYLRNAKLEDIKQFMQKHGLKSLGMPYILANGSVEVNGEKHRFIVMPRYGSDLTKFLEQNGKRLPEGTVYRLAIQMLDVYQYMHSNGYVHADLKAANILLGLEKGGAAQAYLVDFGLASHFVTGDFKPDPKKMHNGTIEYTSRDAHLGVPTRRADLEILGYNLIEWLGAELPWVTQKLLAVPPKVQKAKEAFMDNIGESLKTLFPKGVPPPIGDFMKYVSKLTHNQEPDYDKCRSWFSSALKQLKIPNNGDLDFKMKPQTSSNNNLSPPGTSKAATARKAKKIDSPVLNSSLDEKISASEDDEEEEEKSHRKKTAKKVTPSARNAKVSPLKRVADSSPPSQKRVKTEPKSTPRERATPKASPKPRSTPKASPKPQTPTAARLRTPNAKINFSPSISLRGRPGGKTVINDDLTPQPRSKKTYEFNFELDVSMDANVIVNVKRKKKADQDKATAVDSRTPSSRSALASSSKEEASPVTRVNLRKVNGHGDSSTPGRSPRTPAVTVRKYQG
Description: co-IP; NHK-1-GFP immunoprecipitated from cleared S2 cell lysate with mouse anti-GFP antibody (3E6) and protein G beads, 4°C; lysis buffer 20 mM Tris pH 7.5, 150 mM NaCl, 5 mM EGTA, 1 mM DTT, with protease and phosphatase inhibitors; co-immunoprecipitated BAF detected by in vitro phosphorylation with 32P-gamma-ATP and autoradiograph; cells irradiated with X-rays (1 Gy/min, 5 min) or not irradiated.

No constants are given. Whether binding was seen depends on the method and setting. In cells and extracts the contact can be indirect. Some binding calls cover weakened binding; strength is not graded here. Sequences can lack the tags named with a protein.

B1: Barrier-to-Autointegration Factor (BAF) (protein, UniProt Q9VLU0 1-90)
chain: MSGTSQKHRNFVAEPMGNKSVTELAGIGETLGGRLKDAGFDMAYTVLGQYLVLKKDEELFKDWMKEVCHASSKQASDCYNCLNDWCEEFL
Consider B1, for which the binding result is “binds”.

These data come from PMC2965759.
